The target of assay [1] is T1, BSA-Compound 1 (human CCR4 extracellular region peptide Compound 1 conjugated with BSA) (human).
T1 sequence (peptide, conjugated to BSA (bovine serum albumin) through SMCC): DESIYSNYYLYESIPKPC
Nature of the assay: ELISA on BSA-Compound 1; reference antibody. For orientation: In an ELISA, binding on a coated surface is turned into a signal by an enzyme label.

The target of assay [2] is T2, human CC chemokine receptor 4 (CCR4) on CCR4/EL-4 cells (human) (UniProt P51679).
T2 sequence: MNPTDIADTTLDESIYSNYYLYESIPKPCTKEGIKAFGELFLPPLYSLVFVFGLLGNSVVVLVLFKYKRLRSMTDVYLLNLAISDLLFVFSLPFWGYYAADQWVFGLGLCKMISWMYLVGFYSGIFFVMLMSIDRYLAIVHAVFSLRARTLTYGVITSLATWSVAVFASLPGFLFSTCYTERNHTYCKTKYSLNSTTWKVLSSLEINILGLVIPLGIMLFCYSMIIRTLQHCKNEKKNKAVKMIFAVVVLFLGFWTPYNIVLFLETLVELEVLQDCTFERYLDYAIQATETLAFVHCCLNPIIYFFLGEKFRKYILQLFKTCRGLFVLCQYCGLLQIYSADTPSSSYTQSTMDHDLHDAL
Description: flow cytometry on CCR4/EL-4 cells; reference antibody. A general note: A flow cytometer gives signals particle by particle.

No constants are given. Whether binding was seen depends on the method and setting. Some entries that bind do so weakly or less than the wild type.

B1: anti-CCR4 human chimeric antibody KM2760 (antibody, human IgG1, V domains shown)
VH: EVQLVESGGDLMKPGGSLKISCAASGFIFSNYGMSWVRQTPDMRLEWVATISSASTYSYYPDSVKGRFTISRDNAENSLYLQMNSLRSEDTGIYYCGRHSDGNFAFGYWGRGTLVTVSA
VL: DVLMTQTPLSLPVSLGDQASISCRSSRNIVHINGDTYLEWYLQRPGQSPKLLIYKVSNRFSGVPDRFSGSGSGTDFTLKISRVEAEDLGVYYCFQGSLLPWTFGGGTRLEIRR
With B1, the binding result in assay [1] and in assay [2] was “binds” throughout.
